# Reference: PMC9638019, “The archetypal gene transfer agent RcGTA is regulated via direct interaction with the enigmatic RNA polymerase omega subunit”
# These are yes or no findings as the source states them, for the method shown. For part of these data: A result given as binding can be weak or reduced; the word gives no strength.
# Key:
# [1] = molecular target: T25-GafA-N^1–226 (R. capsulatus); assay: two-hybrid; bacterial adenylate cyclase two-hybrid (T18 and T25 fusions) in E. coli BTH101, 30°C, read by β-galactosidase assay (ONPG, Miller units)
# [2] = molecular target: T25-GafA-Cen2 (amino acids 87–212) (R. capsulatus); assay: as above
# [3] = molecular target: T25-GafA-CenN (amino acids 87–226) (R. capsulatus); assay: as above
# [4] = molecular target: T25-GafA-Cx^87–382 (R. capsulatus); assay: as above
# [5] = molecular target: T25-GafA (R. capsulatus); assay: as above
# [6] = molecular target: T25-GafA-C^221–382 (R. capsulatus); assay: as above
# [7] = molecular target: MBP-GafA-Cx^87–382 (R. capsulatus); assay: pull-down; MBP-tagged GafA protein held on amylose magnetic beads as bait, 2 mg/ml H6-RpoZ in solution as prey, 2 h at 4°C, 200 mM NaCl, 20 mM Tris, 1 mM EDTA, pH 7.4; washes with 0.05% Tween 20; eluted with 10 mM maltose; stained SDS-PAGE; both purified
# [8] = molecular target: Maltose Binding Protein-GafA fusion protein (R. capsulatus); assay: as above
binding [1],binding [2],binding [3],binding [4],binding [5],binding [6],binding [7],binding [8],Binder
binds,binds,binds,binds,binds,no binding,–,–,"T18-Rpo-ω (protein, UniProt D5AS20 1-117) MARVTVEDCVDKVPNRFELVMLAAHRAREVAAGAPITVERDNDKNPVVALREIADETQLADDLRERLIESNQTQIEVDEPEEDAMALLMSGEIDRPRVDDMDEERMLRALMDAQGRD"
–,–,–,–,–,–,binds,binds,"H6-Rpo-ω (protein, UniProt D5AS20 1-117) MARVTVEDCVDKVPNRFELVMLAAHRAREVAAGAPITVERDNDKNPVVALREIADETQLADDLRERLIESNQTQIEVDEPEEDAMALLMSGEIDRPRVDDMDEERMLRALMDAQGRD"
–,–,–,–,no binding,–,–,–,"T18-Rpo-α (protein, UniProt D5AM21 1-338) MIHKNWAELIKPTQLEIKAGNDPQRQATVIAEPLERGFGLTLGNALRRVLMSSLQGAAITSVQIDNVLHEFSSVAGVREDVTDIILNLKGISLKMDVEGPKRLSISAKGPRVVTGADISESMGIEVLNKDHVICHLDDGADVFMELTVNTGKGYVAADKNRPEDAPIGLIPIDAIYSPVKKVAYDVQPTREGQVLDYDKLTMKIETDGSLTPEDAVAYAARILQDQLSIFVNFEEPESASKTDADDGLEFNPLLLKKVDELELSVRSANCLKNDNIVYIGDLIQKTEAEMLRTPNFGRKSLNEIKEVLSSMGLHLGMEVEDWPPENIEDLAKRFEDQF"
